The values below come from ChEMBL document CHEMBL5308504, “Tm Shift (DSF) assay results for EUbOPEN Chemogenomics Library” (2023).

The structures appear in SMILES notation. For some assays here: Most of the highest values are listed elsewhere, so they are rarer here than in the full data. For some assays here: The lowest values were mostly taken out for another list; the other results follow.

For experiment [1], the target named is Bromodomain-containing protein 4 (Homo sapiens) (UniProt O60885). The note with it: Compound concentration 20.0 uM, Protein concentration 2.0 uM, Result type QC Liability.
In experiment [2] the target is T1, Transcription intermediary factor 1-alpha (Homo sapiens) (UniProt O15164).
T1 sequence (whole entry): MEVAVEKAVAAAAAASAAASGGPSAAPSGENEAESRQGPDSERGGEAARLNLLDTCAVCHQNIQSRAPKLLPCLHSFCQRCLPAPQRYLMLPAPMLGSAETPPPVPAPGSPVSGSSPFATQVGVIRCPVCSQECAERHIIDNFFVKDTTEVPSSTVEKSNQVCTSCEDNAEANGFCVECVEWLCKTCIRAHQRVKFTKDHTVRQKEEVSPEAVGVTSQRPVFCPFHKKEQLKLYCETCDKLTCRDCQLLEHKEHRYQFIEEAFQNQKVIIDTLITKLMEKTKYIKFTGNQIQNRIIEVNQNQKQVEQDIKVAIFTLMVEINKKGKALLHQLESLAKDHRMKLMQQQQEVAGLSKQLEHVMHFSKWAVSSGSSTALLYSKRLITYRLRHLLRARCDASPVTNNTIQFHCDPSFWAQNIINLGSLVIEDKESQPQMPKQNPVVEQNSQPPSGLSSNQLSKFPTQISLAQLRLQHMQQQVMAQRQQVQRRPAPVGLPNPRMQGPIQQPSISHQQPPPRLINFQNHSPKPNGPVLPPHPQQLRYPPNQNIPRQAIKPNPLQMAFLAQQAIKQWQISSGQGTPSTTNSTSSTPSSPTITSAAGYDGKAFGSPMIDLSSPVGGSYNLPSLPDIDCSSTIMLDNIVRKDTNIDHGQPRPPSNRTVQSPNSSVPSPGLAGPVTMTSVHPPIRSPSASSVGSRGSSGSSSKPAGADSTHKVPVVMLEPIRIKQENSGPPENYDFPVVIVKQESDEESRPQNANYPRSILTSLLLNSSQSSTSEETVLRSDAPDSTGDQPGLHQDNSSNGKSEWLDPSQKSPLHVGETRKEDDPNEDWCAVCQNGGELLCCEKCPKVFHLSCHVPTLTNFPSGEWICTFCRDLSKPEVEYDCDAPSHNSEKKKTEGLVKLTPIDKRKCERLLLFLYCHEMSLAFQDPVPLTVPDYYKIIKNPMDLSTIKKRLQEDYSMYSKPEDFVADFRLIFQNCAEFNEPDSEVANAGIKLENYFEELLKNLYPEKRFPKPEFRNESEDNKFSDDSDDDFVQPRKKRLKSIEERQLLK
The note with it: Compound concentration 20.0 uM, Protein concentration 2.0 uM, Result type QC Liability.

Turning to `C[C@@H]1C[C@H](N)C[C@H](c2ccncc2NC(=O)c2ccc(F)c(-c3c(F)cccc3F)n2)C1`, the figures for the ΔTm in experiment [1] and in experiment [2] were -0.58 °C and -0.71 °C, respectively.
